Primary screen of a compound library

Results are given as percent effect. The record does not define 0% and 100%; most values in the screen are far below 50% and negative numbers occur (in some assays of this library far below -100). The compounds are a random part of those screened. Two or more numbers in one place are separate tests of the same structure; such repeats can differ widely.

Mtb cholesterol medium: 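Phenotypic screen: M. tuberculosis growth, cholesterol and DPPC medium, 4 days; the read-out is not stated. Concentration: 50 µM. Direction is inferred from retests: higher values go with more growth inhibition. Of about 69,000 compounds tested this way, about 370 (0.54%) reached 50% or more in at least one test.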
Mtb glucose medium: 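Phenotypic screen: M. tuberculosis growth, glucose 7H9 medium, 3 days; the read-out is not stated. Concentration: 50 µM. Higher reads as more growth inhibition (inferred: compounds with an IC50 in retests scored well above the rest). Of about 69,000 compounds tested this way, about 760 (1.1%) reached 50% or more in at least one test.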

Result for Cc1cc(C)n(C2CCCN(C(=O)c3ccn(C)c(=O)c3)C2)n1 (stereo not shown) was Mtb cholesterol medium: 11.76%; Mtb glucose medium: 18.45%. CCS(=O)(=O)Nc1ccn(Cc2ccc(F)cc2Cl)n1 read Mtb cholesterol medium: 19.79%; Mtb glucose medium: 1.351%. Result for Cc1cc(NC(=O)NCCCSc2nncn2C)no1 was Mtb cholesterol medium: -19.07%; Mtb glucose medium: -25.16% and -4.447%. COCCS(=O)(=O)N(Cc1ccsc1)c1ccccc1 read Mtb cholesterol medium: -18.5%; Mtb glucose medium: 12.79%. O=C(NCCn1nc2ccccn2c1=O)c1cc(-c2ccccc2)[nH]n1 read Mtb cholesterol medium: 2.329%; Mtb glucose medium: -2.461%. Result for c1cnnc(N2CCCC(NCc3nnc(-c4ccco4)o3)C2)c1 (stereo not shown) was Mtb cholesterol medium: -20.29%; Mtb glucose medium: -19.93%.

COCC1c2nnn(C)c2CCN1C(=O)Cc1ccc2c(c1)OCO2 (stereo not shown) read Mtb cholesterol medium: -2.017%; Mtb glucose medium: -35.15% and -10.83%. Result for CCCOC1CCCN(c2ccnc(C(=O)NCc3ccco3)c2)C1 (stereo not shown) was Mtb cholesterol medium: 1.246%; Mtb glucose medium: 5.862%. For Cc1ccc(CN(CCCN(C)C)Cc2cnc(N(C)C)nc2)o1.O=C(O)CC(O)(CC(=O)O)C(=O)O the result was Mtb cholesterol medium: -10.87% and -15.12%; Mtb glucose medium: -29.93%. Cn1c(C(=O)N2CCC(C3OCCO3)CC2)c(Cl)c2ccccc21 gave Mtb cholesterol medium: 7.015%; Mtb glucose medium: -6.378%. For NC(=O)C1CCN(S(=O)(=O)c2cnn(-c3ccccc3)c2)C1 (stereo not shown) the result was Mtb cholesterol medium: -16.47%; Mtb glucose medium: -22.93%. O=C(Cc1ccccc1F)NCCN1CCOCC1 read Mtb cholesterol medium: -11.98%; Mtb glucose medium: -3.776%.

For [H][C@@]12COC[C@]1(COC)CN(C(=O)C1CCSCC1)C2 the result was Mtb cholesterol medium: -3.274%; Mtb glucose medium: -2.365% and -23.15%. Result for CCC1c2cccn2CCN1C(=O)c1ccno1 (stereo not shown) was Mtb cholesterol medium: 7.656%; Mtb glucose medium: -15.89%. Result for Cc1c(Cl)cc(C(=O)N(CCO)Cc2nccn2C)cc1Cl was Mtb cholesterol medium: 6.695%; Mtb glucose medium: 32.75%. Result for COCCC(=O)N1CCCC1c1csc(Nc2ncccn2)n1 (stereo not shown) was Mtb cholesterol medium: -2.515%; Mtb glucose medium: 7.761%. NC(=O)C1CCCN(C(=O)c2cccc(OCc3cscn3)c2)C1 (stereo not shown) gave Mtb cholesterol medium: -12.67%; Mtb glucose medium: -15.99%. With CN(CCc1ncnn1C1Cc2ccccc2C1)C1CCS(=O)(=O)C1 (stereo not shown) the screen gave Mtb cholesterol medium: -1.312%; Mtb glucose medium: 5.948%.

O=C(NCc1ccc(-n2cncn2)nc1)c1ccoc1 gave Mtb cholesterol medium: -47.4%; Mtb glucose medium: 19.23%. Cc1nccn1-c1ccc(CNS(=O)(=O)N2CCCC(C)C2)cn1 (stereo not shown) read Mtb cholesterol medium: -9.454%; Mtb glucose medium: -4.045%. Nc1ncc(-c2ccc(Cl)cc2)c(C2CCCNC2)n1 (stereo not shown) gave Mtb cholesterol medium: -25.77% and 9.354%; Mtb glucose medium: 9.509%. With Cc1nc(CC(C)C)sc1C(=O)N1CCC(C2(C)OCCO2)CC1 the screen gave Mtb cholesterol medium: 14.22%; Mtb glucose medium: 14.11%. With Cc1cnn(CC2CN(Cc3nc4ccccc4nc3C)CCO2)c1 (stereo not shown) the screen gave Mtb cholesterol medium: 24.99%; Mtb glucose medium: 18.13%. COc1cc(F)c(S(=O)(=O)N2c3ncccc3NC(=O)C2C)cc1OC (stereo not shown) gave Mtb cholesterol medium: 11.09%; Mtb glucose medium: 25.03%.

Result for CN1C(=O)CC(c2cnn(C)c2)C12CCN(C(=O)c1cscn1)CC2 (stereo not shown) was Mtb cholesterol medium: -23.19%; Mtb glucose medium: 16.44%. For Cc1sc2ncc(-c3ccnc(NC4CCN(C)CC4)n3)c(=O)n2c1C the result was Mtb cholesterol medium: -12.71%; Mtb glucose medium: 22.35%. CCOc1ccc(C(=O)NCCCNc2ncccn2)cc1 gave Mtb cholesterol medium: -19.33%; Mtb glucose medium: -15.77%. Result for Cc1ccc(-c2ccnc(N(C)CC3CCCO3)n2)c(C)n1 (stereo not shown) was Mtb cholesterol medium: -1.7% and -2.705%; Mtb glucose medium: 25.35%. For O=C(O)C(F)(F)F.[H][C@@]12CN(Cc3ccoc3)CCO[C@]1([H])CN(C(=O)COC1CCCC1)C2 the result was Mtb cholesterol medium: -8.118%; Mtb glucose medium: -5.861% and -8.58%. COC1CCN(C(=O)c2c(Cl)c3ccccc3n2C)CC1 gave Mtb cholesterol medium: -12.48%; Mtb glucose medium: 19.9%.

Result for Cc1nc2n(n1)CC(Nc1cc(C(F)(F)F)nc3ncnn13)CC2 (stereo not shown) was Mtb cholesterol medium: 1.916%; Mtb glucose medium: -9.807% and -3.404%. For CSC(C)Cc1c(-c2ccccc2)ncn1CCCNc1cccnc1 (stereo not shown) the result was Mtb cholesterol medium: -5.498%; Mtb glucose medium: -4.424%. Result for Cc1nc(C)n(CC2CCCN2Cc2nc(-c3cccs3)no2)n1 (stereo not shown) was Mtb cholesterol medium: -7.353%; Mtb glucose medium: -31.89%. For CCOCCN1CCN(Cc2nnc(-c3occc3C)o2)CC1 the result was Mtb cholesterol medium: -4.818%; Mtb glucose medium: -17.06%. Result for Cc1nn(C)c(C)c1CN(C)S(=O)(=O)c1c(C)n[nH]c1C was Mtb cholesterol medium: -2.641%; Mtb glucose medium: 6.923%. For N#Cc1cccc(NC(=O)N2CCCC(N3CCCC3=O)C2)c1 (stereo not shown) the result was Mtb cholesterol medium: -17.16%; Mtb glucose medium: -1.207% and -16.33%.

NC(=O)c1cc(C2CCCN(CCc3ccc4c(c3)CCO4)C2)n[nH]1 (stereo not shown) read Mtb cholesterol medium: 9.266%; Mtb glucose medium: -4.144%. O=C(Cn1ncc2c(c1=O)CCCC2)Nc1cccc2[nH]ccc12 gave Mtb cholesterol medium: 9.954%; Mtb glucose medium: -3.955% and -8.808%.

5 of the entries, repeated:

| structure | Mtb cholesterol medium | Mtb glucose medium |
|---|---|---|
| `NC(=O)C1CCN(S(=O)(=O)c2cnn(-c3ccccc3)c2)C1` (stereo not shown) | -16.47 | -22.93 |
| `NC(=O)C1CCCN(C(=O)c2cccc(OCc3cscn3)c2)C1` (stereo not shown) | -12.67 | -15.99 |
| `Nc1ncc(-c2ccc(Cl)cc2)c(C2CCCNC2)n1` (stereo not shown) | -25.77 and 9.354 | 9.509 |
| `Cc1nc(CC(C)C)sc1C(=O)N1CCC(C2(C)OCCO2)CC1` | 14.22 | 14.11 |
| `Cc1cnn(CC2CN(Cc3nc4ccccc4nc3C)CCO2)c1` (stereo not shown) | 24.99 | 18.13 |

Source: ChEMBL document CHEMBL3988442, “University of Dundee, Small-Polar-MMV Screening Library” (2021).